Source: PubChem BioAssay AID686937 (Drosophila RNAi Screening Center, 2013)
The screen tested about 23,000 reagents; shown is a random part of those that have a named target and a result. 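Reduced-secretion tags in replicate 1 do not always agree with the z-scores; no criterion for assigning the tags was given.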 Reagents against one gene are numbered here. Names joined by + are all predicted targets of the reagent. Not given: the amount of reagent.

- Purpose: 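Knock-downs that reduce output of a secreted reporter enzyme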 (primary screen)
- System: Drosophila S2 cells expressing secreted horseradish peroxidase
- Reagent: long dsRNA against Drosophila genes
- Duration: about 5.5 days (5 days dsRNA, then 12 h reporter induction)
- Conditions: reporter expression induced after 5 days of dsRNA, read 12 h later; inducer not stated
- Read-out: 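After 5 days of dsRNA and 12 h of reporter induction, medium peroxidase read by chemiluminescence and scored as per-plate z-score; higher values mean more reporter released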
- Scale: z-score: higher = more reporter secreted into medium

| Gene | reagent | z-score, replicate 1 | z-score, replicate 2 | z-score, replicate 3 | z-score, replicate 4 | phenotype, replicate 1 |
| --- | --- | --- | --- | --- | --- | --- |
| CG11374 | 1 | 0.35 | 0.21 | – | – | – |
| CG6833 | 1 | 0.34 | 0.27 | – | – | – |
| CG8834 | 1 | 0.27 | 0.32 | – | – | – |
| CaBP1 (calcium-binding protein 1) | 1 | 0.23 | 0.19 | – | – | – |
| NimC1 (Nimrod C1) | 1 | 0 | 0.2 | – | – | – |
| Zmynd8 (Zinc finger MYND-type containing 8) | 1 | -0.04 | 0.17 | – | – | – |
| CG7133 | 1 | 0.21 | 0.24 | – | – | – |
| CG11438 | 1 | 0.35 | 0.55 | – | – | – |
| PLCXD | 1 | 0.09 | 0.36 | 0.36 | 0.37 | – |
| CG31689 | 1 | 0.05 | 0.07 | – | – | – |
| Eglp3 (Entomoglyceroporin 3) | 1 | 0.13 | 0.25 | – | – | – |
| CG33284 | 1 | -1.01 | -0.44 | – | – | – |
| Jhedup (Juvenile hormone esterase duplication) | 1 | 0.4 | 0.08 | – | – | – |
| Adgf-C (Adenosine deaminase-related growth factor C) | 1 | 0.15 | -0.07 | – | – | – |
| CG13893 | 1 | 0.17 | 0.15 | – | – | – |
| CG13728 | 1 | 0.11 | 0.37 | – | – | – |
| CG14013 | 1 | -0.74 | -0.28 | – | – | – |
| Paf-AHalpha (Platelet-activating factor acetylhydrolase alpha) | 1 | 0.27 | 0.07 | – | – | – |
| CG16984 | 1 | 0.33 | 0.38 | – | – | – |
| Git (G protein-coupled receptor kinase interacting ArfGAP) | 1 | 0.38 | 0.42 | – | – | – |
| Prosalpha5 (Proteasome alpha5 subunit) | 1 | 0.44 | 0.28 | – | – | – |
| Plekhm1 (Pleckstrin homology and RUN domain containing M1) | 1 | -0.34 | -0.15 | – | – | – |
| psq (pipsqueak) | 1 | -1.87 | -1.37 | – | – | reduced secretion |
| RpS12 (Ribosomal protein S12) | 1 | -3.91 | -3.81 | – | – | reduced secretion |
| pon (partner of numb) | 1 | 0.24 | 0.37 | – | – | – |
| Cpr64Ab (Cuticular protein 64Ab) | 1 | -0.46 | -0.19 | – | – | – |
| Eip75B (Ecdysone-induced protein 75B) | 1 | 0.26 | 0.14 | – | – | – |
| Eip75B (Ecdysone-induced protein 75B) | 2 | -0.22 | -0.28 | – | – | – |
| Eph (Eph receptor tyrosine kinase) | 1 | 0.58 | 0.55 | – | – | – |
| epsilonTry (epsilonTrypsin) | 1 | 0.29 | 0.2 | – | – | – |
| Ubc10 (Ubiquitin conjugating enzyme 10) | 1 | -0.39 | -0.59 | – | – | – |
| Nhe2 (Na[+]/H[+] hydrogen exchanger 2) | 1 | 0.27 | 0.27 | – | – | – |
| Nhe2 (Na[+]/H[+] hydrogen exchanger 2) | 2 | 0.53 | -0.25 | – | – | – |

Copied from the list:
CG14013, z-score, replicate 2 → -0.28
Under “z-score, replicate 1”, Eph (Eph receptor tyrosine kinase) reads 0.58
Under “z-score, replicate 2”, CG16984 shows 0.38
Result for CaBP1 (calcium-binding protein 1) under “z-score, replicate 2”: 0.19
Entry of CG11374 under “z-score, replicate 1”: 0.35
CG7133, z-score, replicate 2 = 0.24

The list goes on:
| Gene | reagent | z-score, replicate 1 | z-score, replicate 2 | z-score, replicate 3 | z-score, replicate 4 | phenotype, replicate 1 |
| --- | --- | --- | --- | --- | --- | --- |
| C901 | 1 | 0.41 | 0.42 | – | – | – |
| cad (caudal) | 1 | -1.68 | -2.66 | – | – | reduced secretion |
| Scsalpha2 (Succinyl-coenzyme A synthetase alpha subunit 2) | 1 | 0.24 | 0.22 | – | – | – |
| Ilp1 (Insulin-like peptide 1) | 1 | 0.46 | 0.42 | – | – | – |
| CG6424 | 1 | 0.35 | 0.26 | – | – | – |
| pall (pallbearer) | 1 | 0.26 | -0.07 | – | – | – |
| CG15042 | 1 | -0.22 | -0.62 | – | – | – |
| CG31275 | 1 | 0.48 | 0.72 | – | – | – |
| CG13380 + CG4174 | 1 | 0.41 | 0.33 | – | – | – |
| CG13380 + CG4174 | 2 | -0.08 | 0.25 | – | – | – |
| CG13157 | 1 | 0.15 | 0.32 | – | – | – |
| CG8543 | 1 | 0.29 | 0.31 | – | – | – |
| CG8543 | 2 | -0.22 | -0.56 | – | – | – |
| yellow-d | 1 | 0.58 | 0.4 | – | – | – |
| CG9098 | 1 | 0.43 | 0.39 | 0.43 | 0.36 | – |
| CG9098 | 2 | -0.08 | -5.93 | – | – | reduced secretion |
| CG32631 | 1 | 0.49 | 0.67 | – | – | – |
| Bka (Bekka) | 1 | 0.19 | 0.19 | – | – | – |
| CG14515 | 1 | 0.33 | 0.43 | – | – | – |
| Zyx (Zyxin) | 1 | 0.19 | 0.45 | – | – | – |
| mge (maggie) | 1 | -0.07 | 0.19 | – | – | – |
| CG5726 | 1 | 0.19 | 0.31 | – | – | – |
| Cht5 (Chitinase 5) | 1 | 0.48 | 0.61 | 0.03 | -0.86 | – |
| CG16965 | 1 | 0.43 | 0.47 | – | – | – |
| CG8545 | 1 | 0.08 | 0.37 | – | – | – |
| RpL6 (Ribosomal protein L6) | 1 | -2.86 | -1.85 | – | – | reduced secretion |
| RpL6 (Ribosomal protein L6) | 2 | -1.22 | -1.81 | – | – | reduced secretion |
| S-Lap1 (Sperm-Leucylaminopeptidase 1) | 1 | 0.07 | 0.17 | – | – | – |
| Faa (Fumarylacetoacetase) | 1 | 0.19 | 0.29 | – | – | – |
| CG32091 | 1 | 0.41 | 0.36 | – | – | – |
| CG32091 | 2 | -0.03 | 0.22 | – | – | – |
| Atf3 (Activating transcription factor 3) | 1 | -0.5 | -0.7 | – | – | – |
| CG33107 | 1 | 0.22 | 0.4 | – | – | – |
| Alp10 (Alkaline phosphatase 10) | 1 | 0.09 | 0.22 | – | – | – |
| CG14882 | 1 | 0.32 | 0.24 | – | – | – |
| KP78a + KP78b | 1 | 0.33 | 0.42 | – | – | – |
| KP78a + KP78b | 2 | 0.13 | 0.3 | – | – | – |
| Tim9a | 1 | 0.44 | 0.66 | – | – | – |
| CR4575 (pseudo) | 1 | 0.15 | 0.61 | – | – | – |
| spab (space blanket) | 1 | 0.12 | 0.27 | – | – | – |
| rngo (rings lost) | 1 | 0.8 | 0.26 | – | – | – |
| Mpcp2 | 1 | -0.06 | -0.01 | – | – | – |
| Fkbp12 (FK506-binding protein 12kD) | 1 | 0.09 | 0.09 | – | – | – |
| CG6937 | 1 | 0.13 | -0.42 | – | – | – |
| PolI (DNA polymerase iota) | 1 | 0.33 | 0.41 | – | – | – |
| scny (scrawny) | 1 | 0.22 | 0.6 | – | – | – |
| scny (scrawny) | 2 | -0.01 | 0.13 | – | – | – |
| Zmynd10 (Zinc finger MYND-type containing 10) | 1 | 0.2 | -0.16 | – | – | – |
| rdo (reduced ocelli) | 1 | 0.34 | 0.13 | – | – | – |
